The target in experiment [1] is T1, Siglec G (mouse) (mouse) (UniProt Q80ZE3).
T1 sequence (tyrosine-phosphorylated after CD24Fc stimulation (sites not stated), looked up): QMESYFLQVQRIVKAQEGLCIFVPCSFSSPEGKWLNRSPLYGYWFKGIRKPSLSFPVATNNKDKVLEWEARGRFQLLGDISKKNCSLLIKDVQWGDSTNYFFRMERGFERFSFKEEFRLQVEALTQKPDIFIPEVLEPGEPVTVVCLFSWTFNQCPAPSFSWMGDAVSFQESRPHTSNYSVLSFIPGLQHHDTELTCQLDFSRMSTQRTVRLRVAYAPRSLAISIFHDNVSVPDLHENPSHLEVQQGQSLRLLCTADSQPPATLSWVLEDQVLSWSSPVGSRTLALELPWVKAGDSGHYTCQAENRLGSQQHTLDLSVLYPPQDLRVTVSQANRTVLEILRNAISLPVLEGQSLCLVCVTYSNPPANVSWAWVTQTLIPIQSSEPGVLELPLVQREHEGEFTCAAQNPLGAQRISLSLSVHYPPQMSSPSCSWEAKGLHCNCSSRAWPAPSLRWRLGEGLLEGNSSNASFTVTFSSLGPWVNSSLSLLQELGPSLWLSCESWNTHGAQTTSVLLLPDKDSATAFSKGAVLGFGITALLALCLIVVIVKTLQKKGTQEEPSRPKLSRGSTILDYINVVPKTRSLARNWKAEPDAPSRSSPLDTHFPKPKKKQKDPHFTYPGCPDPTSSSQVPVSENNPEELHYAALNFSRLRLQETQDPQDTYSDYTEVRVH
As to the kind of experiment: co-immunoprecipitation with anti-Siglec G antisera, Western blot, spleen cells from CD24-/- mice stimulated with CD24Fc.

The chains behind the UniProt entries cited, without tags or fusion partners.
UniProt P29351: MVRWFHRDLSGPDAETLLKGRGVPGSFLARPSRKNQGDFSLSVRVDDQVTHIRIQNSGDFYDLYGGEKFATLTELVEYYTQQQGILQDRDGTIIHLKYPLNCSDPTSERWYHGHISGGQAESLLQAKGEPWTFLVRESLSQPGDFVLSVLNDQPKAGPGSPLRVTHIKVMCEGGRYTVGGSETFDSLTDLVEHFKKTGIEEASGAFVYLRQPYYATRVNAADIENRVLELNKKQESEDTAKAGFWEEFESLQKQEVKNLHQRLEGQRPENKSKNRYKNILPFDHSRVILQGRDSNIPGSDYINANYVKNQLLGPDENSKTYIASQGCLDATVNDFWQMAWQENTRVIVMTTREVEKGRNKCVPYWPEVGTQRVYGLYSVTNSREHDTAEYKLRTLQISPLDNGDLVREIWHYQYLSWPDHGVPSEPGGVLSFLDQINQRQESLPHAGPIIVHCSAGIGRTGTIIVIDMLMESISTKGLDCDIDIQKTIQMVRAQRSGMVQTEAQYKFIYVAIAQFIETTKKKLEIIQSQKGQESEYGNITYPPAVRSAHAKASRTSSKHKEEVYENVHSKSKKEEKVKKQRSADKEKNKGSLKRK

The target of experiment [2] is T1, Siglec G (mouse) (mouse). As to the kind of experiment: co-immunoprecipitation with anti-Siglec G antisera, Western blot, spleen cells from CD24-deficient mice stimulated with CD24Fc (1 µg/ml, 30 min).

Drawing on US20150239953A1, this text covers binding for one substance.

These are yes or no findings as the source states them, for the method shown. In cells and extracts the contact can be indirect. Some binding calls cover weakened binding; strength is not graded here.

With “SHP-1 (from UniProt P29351 1-595) (enzyme)”, the binding entry in experiment [1] and in experiment [2] was “binds” in each case.
